Patent US20250346668A1

Biological target: Human CD3e/g protein (human)
Experiment: ELISA, coated hCD3e/g

| binding | Binder |
| --- | --- |
| binds | mAb001 (antibody, V domains shown) VH: QVQLQQSGPELVKPGASVKISCKASGYSFTNYYMHWVKQRPGQGLEWIGWTYPGNNNIKYNEKFKGKATLTADTSSSTAYMQLSSLTSEDSAVYYCARDGYGYYFFDYWGQGIILTVSS VL: DIVMSQSPSSLAVSAGEKVTMSCKSSQSLLNNRTRKNYLAWYQQKPGQSPKLLIYWASTRESGVPDRFTGSGSGTDFTLTISSVQAEDLAIYYCKQSYTLRTFGGGTKLAIK |
| binds | mAb007 (antibody, V domains shown) VH: QVQLQQSGPELVKPGASVKISCKASGSTFTDNYIHWVKQRPGQGLEWIGWIYPGSVNIKYNEKFKDKATLTADTSSTTAYMQLSSLSSEDSAIYYCARDISRYYFDYWGQGTTLTVSS VL: DIVMSQSPSSLAVSAGERVTMNCKSSQSLLNSRTRKNYLAWYQQKPGQSPKLLIYWASTRESGVPDRFTGSGSGTDFTLTISSVQAEDLAVYYCKQSFILRTFGGGTKLAIK |

No constants are given. Whether binding was seen depends on the method and setting. Binding calls can cover weak binding; strength is not graded here.
